Data as given in PubChem BioAssay AID1259424 (University of Nebraska Medical Center, 2018).

- Assay: 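Find knockdowns that reproduce the expression shifts seen after KSR1 loss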 (primary screen)
- Cell system: human HCT116 colon cancer cells
- Reagents: siRNA pool against human genes, 50 nM
- Detection: 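Six signature mRNAs by branched-DNA multiplex assay, scaled to two housekeeping genes and non-targeting median, log2; matched to mean KSR1 knockdown profile by Pearson correlation and euclidean distance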
- Reading the numbers: mean correlation with KSR1 profile: higher = expression change more like KSR1 knockdown
In all, the deposit lists about 14,000 reagents; shown is an unselected part. 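Higher correlation or smaller distance means closer resemblance to KSR1 loss; control wells, including KSR1 knockdowns, recur on many plates.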 Not all columns of the deposit are shown. Reagent sequences are not shown. Not given: the time to read-out.

ATF7IP (GeneID 55729) → mean correlation with KSR1 profile: 0.434
PRB4 (GeneID 5545) → mean correlation with KSR1 profile: 0.416
PJA1 (GeneID 64219) → mean correlation with KSR1 profile: -0.672
TSFM (GeneID 10102) → mean correlation with KSR1 profile: -0.0189
CEBPG (GeneID 1054) → mean correlation with KSR1 profile: 0.283
COMP (GeneID 1311) → mean correlation with KSR1 profile: -0.00885
ZBTB26 (GeneID 57684) → mean correlation with KSR1 profile: -0.141
WNT5B (GeneID 81029) → mean correlation with KSR1 profile: -0.858
GMPPB (GeneID 29925) → mean correlation with KSR1 profile: -0.516
ASIC1 (GeneID 41) → mean correlation with KSR1 profile: -0.0349
C1QC (GeneID 714) → mean correlation with KSR1 profile: -0.169
CNOT4 (GeneID 4850) → mean correlation with KSR1 profile: -0.577
RBM27 (GeneID 54439) → mean correlation with KSR1 profile: -0.646
CALCR (GeneID 799) → mean correlation with KSR1 profile: 0.523
RPL26L1 (GeneID 51121) → mean correlation with KSR1 profile: -0.426
CSNK2A2 (GeneID 1459) → mean correlation with KSR1 profile: -0.339
TFPI2 (GeneID 7980) → mean correlation with KSR1 profile: -0.31
ABHD18 (GeneID 80167) → mean correlation with KSR1 profile: 0.239
SLC34A2 (GeneID 10568) → mean correlation with KSR1 profile: -0.858
MCMBP (GeneID 79892) → mean correlation with KSR1 profile: 0.61
GRSF1 (GeneID 2926) → mean correlation with KSR1 profile: -0.518
MRPL3 (GeneID 11222) → mean correlation with KSR1 profile: 0.363
SOCS7 (GeneID 30837) → mean correlation with KSR1 profile: 0.575
KCNV2 (GeneID 169522) → mean correlation with KSR1 profile: -0.201
KRTAP4-4 (GeneID 84616) → mean correlation with KSR1 profile: 0.628
CHML (GeneID 1122) → mean correlation with KSR1 profile: 0.0249
TDP2 (GeneID 51567) → mean correlation with KSR1 profile: 0.693
OLFM4 (GeneID 10562) → mean correlation with KSR1 profile: -0.492

As entered above.
GMPPB (GeneID 29925), mean correlation with KSR1 profile: -0.516
CEBPG (GeneID 1054), mean correlation with KSR1 profile = 0.283
Entry for CHML (GeneID 1122) under “mean correlation with KSR1 profile”: 0.0249
For “mean correlation with KSR1 profile”, C1QC (GeneID 714) has -0.169
